# Out of some 370,000 compounds screened, about 100 (0.027%) were called active. This list was built around the results that the source calls inconclusive (neither active nor inactive); the mix of calls is not that of the screen. Calls come from the whole dose curve; as a rule, active = well fitted inhibition curve with a large enough effect in the polarisation, with a control signal flat; inconclusive = small, poorly fitted or top-dose-only effect, or effect the other way, or a change in a side signal; inactive = no such curve, though single readings can be large or run the other way; the % refers to the polarisation. Potencies of inconclusive entries are doubtful fits and often do not repeat. “Side channel” marks fits to a control or component signal instead of the main read-out.
# The chains behind the UniProt entries cited, without tags or fusion partners. Where a name states a change or a piece, a line headed by the entry shows the natural chain unless it says otherwise.
# UniProt P11308: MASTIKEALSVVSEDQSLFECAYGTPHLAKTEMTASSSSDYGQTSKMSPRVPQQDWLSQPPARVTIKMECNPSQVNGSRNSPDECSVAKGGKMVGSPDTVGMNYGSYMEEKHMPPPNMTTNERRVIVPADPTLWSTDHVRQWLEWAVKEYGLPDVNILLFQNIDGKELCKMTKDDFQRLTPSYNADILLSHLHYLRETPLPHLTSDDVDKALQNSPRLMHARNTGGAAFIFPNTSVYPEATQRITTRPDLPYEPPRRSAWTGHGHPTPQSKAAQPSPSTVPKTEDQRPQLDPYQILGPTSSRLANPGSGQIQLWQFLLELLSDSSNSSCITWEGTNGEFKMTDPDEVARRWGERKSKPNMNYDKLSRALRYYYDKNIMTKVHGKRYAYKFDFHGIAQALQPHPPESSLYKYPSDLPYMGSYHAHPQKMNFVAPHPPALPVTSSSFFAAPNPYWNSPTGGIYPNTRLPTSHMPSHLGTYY
# Target: Transcriptional regulator ERG (Homo sapiens) (UniProt P11308)
# Experiment: qHTS for Small Molecule Inhibitors of the ERG Ets/DNA interaction
# Details: fluorescence polarization, His-ERG Ets domain / labelled DNA; series mostly up to 76.9 µM
# Excerpt: The Ets family of proteins is a family of ~30 conserved transcription factors defined by the presence of an ~85 amino acid domain referred to as the Ets domain, which mediates sequence-specific DNA binding to a core DNA element GGAA/T.The Ets family member ERG has been linked to several neoplasms. […] More extensive studies of the effects of over-expression of ERG in prostate cells have recently been carried out and have shown that over-expression of ERG results in increased invasion. […] We will carry out a high throughout screen to identify inhibitors of the interaction between ERG and DNA using a fluorescence polarization (FP) assay with a His-tagged ERG Ets domain and fluorescently-labeled DNA probes to develop small molecule inhibitors of this interaction as probes to test this hypothesis and lay the groundwork for the development of targeted therapies against ERG. NIH Molecular Libraries Probe Production Network [MLPCN] NIH Chemical Genomics Center [NCGC] Grant: NS066464 PI Name: John Bushweller, University of Virgina
# 1.5 ul of protein solution (1 uM ERG domain in 300mM KCl, 50mM Tris-HCl, 1mM EDTA, 1mM DTT, pH 7.5); 20 nl Control plate and compound library plate; 1.5 ul mixture of 5 nM Fluorescein-DNA and 100nM Texas-615-DNA solution in same buffer as above solution; measure fluorescence polarization sequentially for fluorescein (Excitation = 480 nm, Emission = 535s, 535p nm) and Texas red (Excitation = 555 nm, Emission = 632s, 632p nm).
# Potency is the fitted concentration of half-maximal effect.
row,SMILES,Potency
1,Cc1ccc(-c2nc3ccccc3c(=O)n2-c2cccc(O)c2)cc1,"inconclusive: 11.2 µM [inhibitor, single point]"
2,CN1CCc2cccc(Cl)c2CC1,"inconclusive: 50.1 µM [inhibitor, single point]"
3,COCCCn1c(N)c(C(=O)NCCC(C)C)c2nc3ccccc3nc21,inactive
4,COc1ccc(CN2CCNCC2)cc1,inactive
5,CN1C(=O)C(=Cc2ccc(N3CCCCC3)o2)C(=O)N(C)C1=S,"inconclusive: 28.2 µM [fluorescent, side channel, partial curve, poor fit]"
6,N[C@@H](Cc1cc(I)c(O)c(I)c1)C(=O)O,"inconclusive: 11.2 µM [inhibitor, single point]"
7,CC12CC3CC(C)(C1)CC(N)(C3)C2,"inconclusive: 0.891 µM [inhibitor, full curve, poor fit]"
8,CCC(C)(C)NC(=O)Cn1c(=O)oc2cc(S(=O)(=O)N3CC(C)CC(C)C3)ccc21 (configuration not stated),"inconclusive: 50.1 µM [inhibitor, single point]"
9,C=CCn1c(C)c(C=C2C(=O)NC(=O)NC2=O)c2ccccc21,"inconclusive: 50.1 µM [inhibitor, single point]"
10,OC(COCc1ccc(Cl)cc1)CN1CC=C(c2ccccc2)CC1 (configuration not stated),"inconclusive: 7.94 µM [inhibitor, single point]"
11,N#Cc1cc2c(nc1SCC(=O)Nc1cccc(F)c1)C1CCN2CC1,"inconclusive: 5.01 µM [quencher, side channel, single point]"
12,NC(=O)Cn1cc(C=C2C(=O)NC(=O)NC2=O)c2ccccc21,"inconclusive: 20 µM [inhibitor, partial curve]"
13,Cc1ccccc1O,inactive
14,COc1ccc(S(=O)(=O)N2Cc3cnnn3-c3ccccc3C2C#N)cc1 (configuration not stated),"inconclusive: 28.2 µM [inhibitor, partial curve, poor fit]"
15,CN(C(=O)c1cccc(N2C(=O)C3C4C=CC(C4)C3C2=O)c1)C1CCCCC1 (configuration not stated),"inconclusive: 50.1 µM [inhibitor, single point]"
16,Cc1cc2ccccc2n1CCNC(=O)COc1ccccc1,"inconclusive: 25.1 µM [inhibitor, partial curve, poor fit]"
17,CN1C[C@@H]2C[C@@H](c3cccn3-c3ccccn3)N3CCC[C@@]23C1=O,"inconclusive: 20 µM [inhibitor, partial curve, poor fit]"
18,COCCCNC(=O)Cn1cc(/C=C2\C(=O)NC(=O)N(c3ccccc3F)C2=O)c2ccccc21,inactive
19,c1ccc(SSc2ccccc2)cc1,"inconclusive: 11.2 µM [inhibitor, single point]"
20,C[N+]1(C)C2CCC1CC(OC(=O)c1ccco1)C2 (configuration not stated),inactive
21,Cc1cc(-c2n[nH]c(=S)n2-c2ccc(C)c(C)c2)no1,"inconclusive: 35.5 µM [inhibitor, partial curve, poor fit]"

# Shown with bars between the fields: two of the compounds above
row | SMILES | Potency
5 | CN1C(=O)C(=Cc2ccc(N3CCCCC3)o2)C(=O)N(C)C1=S | inconclusive: 28.2 µM [fluorescent, side channel, partial curve, poor fit]
21 | Cc1cc(-c2n[nH]c(=S)n2-c2ccc(C)c(C)c2)no1 | inconclusive: 35.5 µM [inhibitor, partial curve, poor fit]

# (more compounds)

row,SMILES,Potency
1,COC1C(C)OC(OC2CC(C)(O)Cc3cc4c(c(O)c32)C(=O)c2c(O)cc3c(c2C4=O)OC2OC3(C)C(O)C(N(C)C)C2O)C(OC)C1(C)OC (configuration not stated),active: 7.08 µM
2,CC(=O)c1ccc(NC(=O)c2sc3nc4c(cc3c2N)N2CCC4CC2)cc1,"inconclusive: 11.2 µM [quencher, side channel, single point]"
3,CCn1nc(-c2ccccc2)nc2c(=O)n(C)c(=O)nc1-2,inactive
4,CCN(CC)C(=O)c1ccc(NC(=O)c2cc(S(=O)(=O)N3CCCCCC3)ccc2OC)cc1,inactive
5,N#CCN1CCN(c2ccc(C(F)(F)F)cc2)CC1,"inconclusive: 28.2 µM [inhibitor, partial curve, poor fit]"
6,COC(=O)C1C2CC[C@@H](CC1OC(=O)c1ccccc1)N2 (some centres not stated),inactive
7,NC(N)=Nc1ccc2[nH]c3c(c2c1)C[C@@]1(O)[C@H]2Cc4ccc(O)c5c4[C@@]1(CCN2CC1CC1)[C@H]3O5,inactive
8,CN1/C(=C\C=Nc2ccccc2)C(C)(C)c2ccccc21,"inconclusive: 39.8 µM [fluorescent, side channel, partial curve, poor fit]"
9,O=C(CCc1nnc2ccc(NCc3ccccc3Cl)nn12)N1CCC2(CC1)OCCO2,"inconclusive: 11.2 µM [inhibitor, partial curve, poor fit]"
10,Cc1ccsc1C(=O)C1CCCN(Cc2cccc(OCCO)c2)C1 (configuration not stated),inactive
11,C/C=C/c1ccc2c(c1)OCO2,"inconclusive: 3.98 µM [inhibitor, partial curve, poor fit]"
12,COC(=O)C12OCC34C(CC5C(C)=C(O)C(=O)CC5(C)C3C(O)C1O)OC(=O)C(OC(=O)/C=C(\C)C(C)C)C24 (configuration not stated),"inconclusive: 35.5 µM [inhibitor, partial curve, poor fit]"
13,c1ccc2c(CN3CCCCCCC3)c[nH]c2c1,inactive
14,CCN1C(=O)C(=C2C=C(C)OC(C)=C2)C(=O)N(CC)C1=S,inactive
15,COc1ccc(N=Cc2c(O)n(Cc3ccccc3)c(=S)[nH]c2=O)c(OC)c1,inactive
16,Cc1ccc(/C=C2\C(=O)NC(=S)N(c3ccccc3F)C2=O)s1,"inconclusive: 25.1 µM [fluorescent, side channel, partial curve, poor fit]"
17,CN(C)[C@@H]1C(=O)C(C(N)=O)=C(O)[C@@]2(O)C(=O)C3=C(O)c4c(O)cccc4[C@@](C)(O)[C@H]3[C@H](O)[C@@H]12,"inconclusive: 50.1 µM [inhibitor, single point]"
18,CCCCn1c(O)c(/C=C2/C=CC=N2)c(=O)[nH]c1=O,"inconclusive: 28.2 µM [fluorescent, side channel, single point]"
19,O=[N+]([O-])c1ccc(N2CCCCCC2)c2nonc12,"inconclusive: 28.2 µM [inhibitor, single point]"
20,CCCN1CCO[C@@H]2c3cc(O)ccc3OC[C@H]21,"inconclusive: 11.2 µM [inhibitor, single point]"
21,O=C(CN1CC=C(c2ccccc2)CC1)Nc1cc(Cl)ccc1Cl,"inconclusive: 126 µM [inhibitor, single point]"
